The values below come from paper PMC8166973.

Chains of the proteins cited; added tags and fusions are not shown. Residues count along the entry.
UniProt P05622, residues 32-561: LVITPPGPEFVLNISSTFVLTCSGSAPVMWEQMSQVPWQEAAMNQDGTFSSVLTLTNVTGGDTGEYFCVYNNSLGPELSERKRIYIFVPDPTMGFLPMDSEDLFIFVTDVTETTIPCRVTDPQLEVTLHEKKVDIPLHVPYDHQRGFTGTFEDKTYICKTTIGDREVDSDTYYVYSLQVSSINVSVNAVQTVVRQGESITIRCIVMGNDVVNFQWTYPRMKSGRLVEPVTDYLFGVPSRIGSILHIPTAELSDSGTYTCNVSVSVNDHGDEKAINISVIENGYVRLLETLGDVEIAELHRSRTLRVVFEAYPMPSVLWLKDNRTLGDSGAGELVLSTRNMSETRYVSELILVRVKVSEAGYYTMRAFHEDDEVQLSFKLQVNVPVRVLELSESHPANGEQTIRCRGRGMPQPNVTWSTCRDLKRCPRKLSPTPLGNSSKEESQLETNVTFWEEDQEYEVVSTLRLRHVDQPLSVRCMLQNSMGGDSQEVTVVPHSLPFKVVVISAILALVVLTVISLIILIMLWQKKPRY
UniProt P01127, residues 82-190: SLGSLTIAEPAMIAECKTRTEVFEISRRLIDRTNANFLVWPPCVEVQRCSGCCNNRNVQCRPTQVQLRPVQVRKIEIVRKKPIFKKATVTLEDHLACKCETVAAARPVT

No constants are given. Whether binding was seen depends on the method and setting. Some binding calls cover weakened binding; strength is not graded here.

This assay has as its target mouse PDGFRβ (mPDGFRβ) fragment (amino acids 1-561) fused to GFP (mouse) (UniProt P05622). The assay can be described thus: flow cytometry on cells; biotinylated proteins oligomerised around streptavidin-phycoerythrin; HEK293F cells transfected with PDGFRβ(1-561)-GFP; 30 min on ice in PBS + 2% FBS; gMFI of GFP+ over GFP- cells in the same well (gMFI Index); 3-log concentration range; also with 10 mM EDTA or 10 µg/mL anti-αv-integrin mAb, without effect; only the binder purified.

Take “homodimeric form of human platelet derived growth factor B (hPDGF-BB) (from UniProt P01127 82-190) (ligand)”: the binding entry is listed as “binds”.
